These are yes or no findings as the source states them, for the method shown. Binding seen in cells or lysates may run through a third protein. Some results given as binding are weak or reduced against the parent protein; the word gives no strength.
Target: Bcl-xL (human (endogenous in KMM-1)) (UniProt Q07817)
Test: co-IP; KMM-1 cells transfected with empty vector or Bik cDNA, harvested 24 h after transfection; lysates (1% digitonin lysis buffer); Bik, Bcl-2 and Bcl-xL immunoprecipitates analysed by western blot

The chains behind the UniProt entries cited, without tags or fusion partners.
UniProt Q07817: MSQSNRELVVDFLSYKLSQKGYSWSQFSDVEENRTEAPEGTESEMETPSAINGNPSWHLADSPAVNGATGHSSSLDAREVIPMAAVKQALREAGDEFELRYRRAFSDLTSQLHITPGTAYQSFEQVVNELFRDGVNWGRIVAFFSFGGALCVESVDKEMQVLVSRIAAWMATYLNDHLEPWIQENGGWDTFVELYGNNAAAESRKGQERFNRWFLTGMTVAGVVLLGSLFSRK
UniProt Q13323: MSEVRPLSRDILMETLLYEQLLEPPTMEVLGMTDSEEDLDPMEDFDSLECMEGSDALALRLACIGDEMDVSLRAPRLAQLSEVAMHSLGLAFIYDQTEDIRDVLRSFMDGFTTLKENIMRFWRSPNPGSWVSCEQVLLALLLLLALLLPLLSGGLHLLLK

**Q.** With “Bik-HA (ectopic Bik) (from UniProt Q13323 1-160)” as the substance, how does the binding read?
**A.** binds

From publication PMC3008608
